A short description of data set [1]: Phase solubility diagram. As to conditions: container M2C2.
Data set [2] in a line: Phase solubility diagram. The settings on record: container SBE-β-CD.
The nature of data set [3]: Phase solubility diagram. The settings on record: container M2.

Experimental findings from article PMC4861662 (ChemMedChem, 2016) are described below.

Molecules are shown by their SMILES.

Regarding `C(=C\c1ccccc1)/CN1CCN(C(c2ccccc2)c2ccccc2)CC1` [Cinnarizine], the “Highest drug concentration achieved with container” value in data set [1] stood at 4.40 mM; in data set [2], 1.71 mM; in data set [3], 0 mM.
